The values below come from publication PMC12040169 (PLOS Biology, 2025).

Some of the results follow.

For the experiment, the system named is T1, CTL2-GFP (C. trachomatis L2/434/Bu, GFP-expressing).
T1 construct: L2/434/Bu, GFP-expressing
The arrangement: species or system HeLa; Intracellular C. trachomatis growth in HeLa cells, bulk GFP fluorescence relative to DMSO. The settings on record: bulk GFP, single well; 28.5 h, 10 µM; inhibitor.
In the case of `CN1CCOc2cc(S(=O)(=O)Nc3cccc(-c4cnco4)c3)ccc21` [CBK067119], the “% of control remaining” value came to 92.9612%.
The same measure for `CC(=O)Nc1ccc([C@@H](O)[C@H]2COCC(=O)N2C)cc1` [CBK289059]: 138.547%; for `O=C(c1cc[nH]c1)N1CCCC2(CCN(C(=O)c3ccoc3)C2)C1` (stereo not shown) [CBK131629]: 97.2114%.
For `Cc1ccc(CN2CCC(N3C(=O)NC4(CCN(CC(C)C)CC4)C3=O)CC2)cc1C` [CBK285822] the value was 118.072%; for `CCc1nn(C)cc1CNC1CCCN(c2ccc(C#N)cc2)C1=O` (stereo not shown) [CBK304176], 94.2824%.
For `O=C(CCOc1ccc(F)cc1)Nc1cnc(-c2ccc(F)cc2)c(-c2ccoc2)n1` [CBK037166] the value was 128.949%.
Turning to `O=C(c1c[nH]c2ccccc12)C(O)C(c1ccccc1)N1CCOCC1` (stereo not shown) [CBK267802], the “% of control remaining” value stood at 98.6306%.
Regarding `Cc1ccccc1OCCCn1cncc1-c1cn(C)nc1C` [CBK281813], the “% of control remaining” value worked out at 135.229%.
For `CC(NC(=O)Cc1ccc(-c2ccccc2)cc1)c1cccnc1` (stereo not shown) [CBK295147] the value was 147.614%; for `C=CCn1c(NCc2ccco2)nc2ccccc21` [CBK269751], 128.311%.
For `C[C@H](Nc1ccc(C(F)(F)F)cc1[N+](=O)[O-])C(=O)NCCOc1ccccc1F` [CBK297535] the value was 131.487%.
The same measure for `CCC1CN(CC(=O)NCc2ccc(OCC(N)=O)cc2)CCO1` (stereo not shown) [CBK305774]: 141.161%; for `Cc1ccc(NC(=O)c2cc(N3C(=O)c4ccc(C(=O)O)cc4C3=O)ccc2N2CCCCC2)cc1` [CBK265274]: 100%.
Regarding `CCOC(=O)c1ccoc1C[N+](C)(CC)CC` [CBK007022I], the “% of control remaining” value is on record as 123.263%.
The same measure for `O=C(Cn1cccn1)N1CCc2[nH]c3ccccc3c2C1` [CBK281839]: 144.513%; for `O=C(O)c1ccc(N2C(=O)/C(=C/c3c[nH]c4ccccc34)SC2=S)cc1` [CBK263085]: 100%; for `O=C(O)C1(Oc2ccc3ccccc3c2)CCN(C2CCNCC2)CC1` [CBK306615]: 122.488%.
On to `COc1ccc(-n2ncc(-c3cccnc3)n2)cn1` [CBK112827], for which the “% of control remaining” value was found to be 86.9166%.
The same measure for `CCn1c(SCC(=O)Nc2ccc(Br)cc2F)nnc1-c1ccc(OC)cc1` [CBK266172]: 219.197%; for `O=S(=O)(NC1CCCCC1)c1ccc(S(=O)(=O)N2CCOCC2)cc1` [CBK269618]: 77.8155%; for `Cc1nnc(CSc2nnc(-c3ccc(Cl)cc3)[nH]2)o1` [CBK270241]: 129.631%.
The same measure for `CC(Cc1c[nH]c2ccccc12)NC(=O)CSS(=O)(=O)O` (stereo not shown) [CBK260942N]: 100%.
